Measurements as given in PMC7869572.
These are yes or no findings as the source states them, for the method shown. In cells and extracts the contact can be indirect. Some entries that bind do so weakly or less than the wild type.

By UniProt entry, the sequences of proteins in these tests, tags left out.
UniProt Q93008: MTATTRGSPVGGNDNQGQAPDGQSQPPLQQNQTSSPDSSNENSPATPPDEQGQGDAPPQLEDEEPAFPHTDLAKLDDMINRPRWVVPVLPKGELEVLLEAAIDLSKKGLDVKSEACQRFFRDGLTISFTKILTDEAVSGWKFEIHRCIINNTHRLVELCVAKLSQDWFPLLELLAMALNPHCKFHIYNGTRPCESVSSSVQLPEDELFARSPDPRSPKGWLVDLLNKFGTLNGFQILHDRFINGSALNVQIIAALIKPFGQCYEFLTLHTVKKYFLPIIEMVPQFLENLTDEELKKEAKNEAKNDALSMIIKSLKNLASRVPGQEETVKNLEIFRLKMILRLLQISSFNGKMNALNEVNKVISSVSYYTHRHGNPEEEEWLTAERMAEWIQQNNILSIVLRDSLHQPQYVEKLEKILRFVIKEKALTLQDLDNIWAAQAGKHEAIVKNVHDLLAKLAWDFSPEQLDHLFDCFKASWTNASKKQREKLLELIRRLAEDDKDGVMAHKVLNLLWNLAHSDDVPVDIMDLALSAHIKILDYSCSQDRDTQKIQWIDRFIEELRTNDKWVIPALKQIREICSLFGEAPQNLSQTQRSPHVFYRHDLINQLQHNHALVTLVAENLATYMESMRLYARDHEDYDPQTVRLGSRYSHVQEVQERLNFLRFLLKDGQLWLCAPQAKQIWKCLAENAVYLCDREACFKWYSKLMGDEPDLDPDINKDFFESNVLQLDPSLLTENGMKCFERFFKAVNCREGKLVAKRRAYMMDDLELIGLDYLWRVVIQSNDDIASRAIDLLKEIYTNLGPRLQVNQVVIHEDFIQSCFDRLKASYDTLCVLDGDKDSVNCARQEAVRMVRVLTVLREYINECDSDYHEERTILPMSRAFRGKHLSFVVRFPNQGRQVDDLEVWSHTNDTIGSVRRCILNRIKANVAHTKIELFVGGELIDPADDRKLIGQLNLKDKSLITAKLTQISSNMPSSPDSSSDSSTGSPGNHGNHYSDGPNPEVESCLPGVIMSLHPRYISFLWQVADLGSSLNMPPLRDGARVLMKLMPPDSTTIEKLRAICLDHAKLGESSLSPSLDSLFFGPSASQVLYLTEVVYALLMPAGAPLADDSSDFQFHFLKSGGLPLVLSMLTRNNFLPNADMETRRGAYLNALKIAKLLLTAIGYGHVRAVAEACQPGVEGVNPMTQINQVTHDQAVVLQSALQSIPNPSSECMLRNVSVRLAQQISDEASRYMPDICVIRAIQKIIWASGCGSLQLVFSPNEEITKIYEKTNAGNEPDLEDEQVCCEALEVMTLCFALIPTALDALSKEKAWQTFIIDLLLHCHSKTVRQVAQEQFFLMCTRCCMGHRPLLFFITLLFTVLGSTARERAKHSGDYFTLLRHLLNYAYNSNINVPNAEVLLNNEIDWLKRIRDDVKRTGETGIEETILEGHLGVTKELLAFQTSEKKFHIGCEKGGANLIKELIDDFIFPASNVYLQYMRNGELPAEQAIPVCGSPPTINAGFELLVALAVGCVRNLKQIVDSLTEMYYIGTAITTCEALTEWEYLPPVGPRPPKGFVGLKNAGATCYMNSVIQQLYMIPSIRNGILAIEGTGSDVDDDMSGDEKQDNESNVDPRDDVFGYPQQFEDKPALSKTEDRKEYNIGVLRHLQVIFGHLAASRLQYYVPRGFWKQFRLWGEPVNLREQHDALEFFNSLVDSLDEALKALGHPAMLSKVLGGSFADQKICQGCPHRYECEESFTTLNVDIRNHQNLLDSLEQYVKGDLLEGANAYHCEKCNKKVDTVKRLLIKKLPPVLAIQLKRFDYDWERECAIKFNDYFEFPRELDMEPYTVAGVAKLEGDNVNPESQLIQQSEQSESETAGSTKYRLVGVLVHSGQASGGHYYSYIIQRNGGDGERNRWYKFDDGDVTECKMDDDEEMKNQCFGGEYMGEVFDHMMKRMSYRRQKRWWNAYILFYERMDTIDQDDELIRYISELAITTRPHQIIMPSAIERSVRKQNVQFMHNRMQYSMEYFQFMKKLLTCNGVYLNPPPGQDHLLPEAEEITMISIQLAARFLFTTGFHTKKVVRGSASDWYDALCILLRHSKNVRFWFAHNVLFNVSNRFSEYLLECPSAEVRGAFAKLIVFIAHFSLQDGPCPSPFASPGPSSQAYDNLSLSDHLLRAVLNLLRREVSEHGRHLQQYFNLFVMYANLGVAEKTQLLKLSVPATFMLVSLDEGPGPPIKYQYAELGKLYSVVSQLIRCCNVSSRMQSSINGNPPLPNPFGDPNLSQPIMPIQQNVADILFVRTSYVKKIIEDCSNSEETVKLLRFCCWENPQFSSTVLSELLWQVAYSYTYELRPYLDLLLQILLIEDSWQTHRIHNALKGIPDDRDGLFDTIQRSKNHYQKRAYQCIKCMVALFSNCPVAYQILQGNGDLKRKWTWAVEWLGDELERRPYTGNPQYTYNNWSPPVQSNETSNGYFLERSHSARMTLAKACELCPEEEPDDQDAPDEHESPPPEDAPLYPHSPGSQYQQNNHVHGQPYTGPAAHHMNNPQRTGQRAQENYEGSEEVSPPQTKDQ
UniProt P48431: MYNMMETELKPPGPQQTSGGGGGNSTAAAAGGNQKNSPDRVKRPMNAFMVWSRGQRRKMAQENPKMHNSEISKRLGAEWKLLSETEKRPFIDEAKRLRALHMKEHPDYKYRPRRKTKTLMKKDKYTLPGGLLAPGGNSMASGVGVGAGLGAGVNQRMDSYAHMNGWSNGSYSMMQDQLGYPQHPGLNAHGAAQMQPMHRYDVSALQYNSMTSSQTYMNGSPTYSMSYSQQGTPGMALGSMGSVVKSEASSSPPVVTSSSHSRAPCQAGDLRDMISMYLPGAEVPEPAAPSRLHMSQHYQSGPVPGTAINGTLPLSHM

Target: HA-Usp9x (full-length), ubiquitin-specific peptidase 9, X-linked (UniProt Q93008)
Assay: co-IP; HA-Usp9x and FLAG-SOX2 co-expressed in HEK293T; lysis in 25 mM HEPES pH 7.5, 400 mM NaCl, 0.5% IGEPAL CA-630, diluted to 100 mM NaCl and 0.125% IGEPAL; 0.5 mg lysate protein immunoprecipitated with anti-HA for 18 hours, protein A/G 2 h at 4°C; immunoblot with anti-FLAG

binding: binds
Substance: FLAG-SOX2 (pCMV6-FLAG-SOX2), SRY (sex determining region Y)-box 2 (from UniProt P48431 1-317)
